# Source: patent EP3858345B1, “RADIOTRACER DERIVATIVES OF TRIMETHOPRIM FOR DIAGNOSTIC IMAGING” (dated 2026)
# Tested on: HEK293 cells carrying DHFR transgene
# Assay: Cell sensitivity experiment, DHFR cells in matrigel, PET and gamma counting
# Conditions: injected in 150 µL matrigel, imaged the next day
compound,measurement,value
COc1cc(Cc2cnc(N)nc2N)cc(OC)c1O[11CH3],number of implanted cells detected,300K and 3 x 10^5 cells

# Not every entry of the source has a single result; some have several. Only these are listed. There may be further records. The records of an entry differ for a reason that is not stated; dose, time, organism, isomer or construct need not be as stated for each record.
